Data on 1 molecule can be found in patent EP4613775A1.

In this assay the target is T1, kinesin family member C3 (human) (UniProt Q9BVG8).
T1 sequence (looked up): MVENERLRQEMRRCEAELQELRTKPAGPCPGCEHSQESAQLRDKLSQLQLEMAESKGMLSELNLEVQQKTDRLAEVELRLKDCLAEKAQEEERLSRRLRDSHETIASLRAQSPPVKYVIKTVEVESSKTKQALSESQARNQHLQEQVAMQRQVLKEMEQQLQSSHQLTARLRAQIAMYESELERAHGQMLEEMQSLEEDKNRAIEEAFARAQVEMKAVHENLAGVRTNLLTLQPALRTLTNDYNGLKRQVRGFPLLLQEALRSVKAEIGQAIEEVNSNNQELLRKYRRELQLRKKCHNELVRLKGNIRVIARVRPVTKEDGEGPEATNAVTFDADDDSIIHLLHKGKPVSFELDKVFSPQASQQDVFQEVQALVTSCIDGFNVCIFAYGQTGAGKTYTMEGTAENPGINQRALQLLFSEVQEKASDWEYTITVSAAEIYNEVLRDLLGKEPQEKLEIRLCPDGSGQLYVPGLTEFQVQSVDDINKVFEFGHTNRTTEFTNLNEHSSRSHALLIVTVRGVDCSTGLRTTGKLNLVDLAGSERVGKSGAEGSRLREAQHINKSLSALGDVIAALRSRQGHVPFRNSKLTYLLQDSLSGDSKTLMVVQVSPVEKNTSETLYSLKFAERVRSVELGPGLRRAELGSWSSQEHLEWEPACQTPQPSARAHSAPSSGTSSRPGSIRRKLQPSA
Description: custom ELISA.

Results are given in words; binding and its absence hold for the method and conditions named. Some binding calls cover weakened binding; strength is not graded here.

B1: recombinant antibody P1-F6 (antibody, V domains shown)
VH: QVPLKESGPALVKPTRTLTLTCTFSGFSLSTNGVSVGWIRQPPGKALDWLALIYWNDDKRYSPSLKNRLTITKDTSKNLVVLRMTNMDPVDTATYYCAHRPIASSRDGFDYWGQGTLVTVSS
VL: DIQMTQFPSTLSASVGETVTISCRASQSVSGWLAWYQQKPGKAPKLLMYKASALENGVPSRFSGSGSGTEFTLTISSLQPDDFATYYCQQYNGFPFTFGPGTKVDIN
On to B1, for which the binding entry was “binds”.
